Entries after “also recorded” stand apart in the source; their conditions may differ. At least one structure is not confirmed: it was looked up by name or label, or the drawing left a doubt.
Assays:
primary cortical neurons [1] = assay: In vitro ICH model: hemin-induced ferroptosis, MTT survival and Live/Dead assay; type: cell-based, mice or rats; details: hemin 80 μM, survival at 16 h
Experimental: (§1) Primary cortical neurons were obtained from either embryonic (E15) CD1 mice or embryonic (E17) Sprague-Dawley rats. Briefly, cortices were dissected, homogenized, and plated in minimum essential medium containing 10% fetal bovine serum (FBS), 5% horse serum, and 1% penicillin/streptomycin in 96-well plates, 6-well plates, or 10-cm dishes. Neurons were maintained at 37° C. with 5% CO2. All experiments were started at 24 hours after plating.
Cell death was induced in primary cortical neurons and hippocampal HT22 cells by treatment with hemin ([…]; Sigma). For the neuroprotection studies, cells were treated with 80 μM hemin in the presence of sodium selenite (Sigma) diluted in water. Cell viability was analyzed 16 hours after treatment. Cells were rinsed with warm phosphate-buffered saline (PBS) and assessed by MTT assay. The fidelity of MTT assays in measuring viability was verified by calcein-AM/ethidium homodimer-1 staining (Live/Dead assay, Molecular Probes) following the manufacturer's instructions.

primary cortical neurons [2] = assay: Oxidative stress-induced neuronal death: HCA-induced ferroptosis, MTT survival; type: cell-based, mice or rats; details: HCA 5 mM, survival at 24 h
Experimental: as §1
Primary cortical neurons and HT22 cells were exposed to 5 mM HCA (glutamate structural analog) to induce oxidative stress-induced cell death, and sodium selenite (Sigma) was applied in media. 24 hours after treatment with HCA, the cells were rinsed with warm PBS, and cell viability was assessed by MTT assay (Life Technologies) and calcein-AM/ethidium homodimer-1 staining (Live/Dead assay, Molecular Probes).

HT1080 cancer cells = assay: Erastin-induced ferroptosis, MTT survival; type: cell-based; details: 1 μM erastin, 1 μM Se
primary cortical neurons [3] = assay: Erastin-induced ferroptosis, MTT survival; type: cell-based, mice or rats; details: 5 μM erastin, 1 μM Se
primary neurons = assay: ER stress-induced death (thapsigargin or tunicamycin), survival; type: cell-based, mice or rats; details: 1 μM thapsigargin or 3 μM tunicamycin, 1 μM Se
mature cultured neurons = assay: Glutamate excitotoxicity, survival; type: cell-based, mice or rats; details: 100 μM glutamate, 1 μM Se
[4] = test system: GPX4 and other selenoprotein genes; assay: Quantitative PCR of antioxidant/selenoprotein genes in neurons; type: cell-based, mice or rats; details: Se 1 μM, 6 h
Experimental: Total RNA was prepared using the NucleoSpin RNA II kit (MACHEREYNAGEL) according to the manufacturer's protocol. Duplex real-time PCR reactions were performed with gene expression assays using 6-carboxyfluorescein-labeled probes (Applied Biosystems) for antioxidant enzymes. All expression levels were normalized to β-actin gene expression levels, which were determined with a VIC-labeled probe (Applied Biosystems). All experiments were performed using a Quant 6 Real-Time PCR System (Applied Biosystems).
as §1

GPX4 promoter = assay: GPX4 promoter-luciferase reporter assay; type: cell-based, murine; details: 4 kb upstream region reporter, protective Se concentrations
[5] = test system: GPX4 and selenoprotein mRNA in striatum; type: in vivo, mouse; details: 2.5 μM Se ICV, 6 h
Experimental: FIG. 5A is a schematic showing ICV injection of dose dependent Se (1-5 μM) and collection of striatum 6 hours later to extract RNA for quantitative PCR.
Male C57BL/6 mice (8 to 10 weeks of age; Charles River) were anesthetized with isoflurane (2 to 5%) and placed on a stereotaxic frame. During the procedure, the animal's body temperature was maintained at 37° C. with a homeothermic blanket. With a nanomite syringe pump (Harvard Apparatus) and a Hamilton syringe, […] of collagenase (0.075 IU; Sigma) was infused into the right striatum at a flow rate of 0.120 ml/min. Relative to the bregma point, the stereotaxic coordinates of the injection were as follows: lateral, −0.20; anteroposterior, 0.62; and dorsoventral, −0.40. In control animals, […] of saline was infused. The treatment group received sodium selenite (1-5 μM) 2 hours after collagenase infusion directly into the ventricals. The control groups received vehicle (saline) alone. The animals were randomized to sham or ICH groups. The identity of the mice that received vehicle or Se was masked to surgeons who performed the ICH. […]
Total RNA was prepared using the NucleoSpin RNA II kit (MACHEREYNAGEL) according to the manufacturer's protocol. […] All expression levels were normalized to β-actin gene expression levels, which were determined with a VIC-labeled probe (Applied Biosystems). […]

[6] = test system: collagenase mouse model of ICH; assay: Collagenase-induced mouse model of ICH: behavior, fluorojade, immunofluorescence; type: in vivo
Experimental: Male C57BL/6 mice (8 to 10 weeks of age; Charles River) were anesthetized with isoflurane (2 to 5%) and placed on a stereotaxic frame. During the procedure, the animal's body temperature was maintained at 37° C. with a homeothermic blanket. With a nanomite syringe pump (Harvard Apparatus) and a Hamilton syringe, […] of collagenase (0.075 IU; Sigma) was infused into the right striatum at a flow rate of 0.120 ml/min. Relative to the bregma point, the stereotaxic coordinates of the injection were as follows: lateral, −0.20; anteroposterior, 0.62; and dorsoventral, −0.40. In control animals, […] of saline was infused. […] The control groups received vehicle (saline) alone. The animals were randomized to sham or ICH groups. The identity of the mice that received vehicle or Se was masked to surgeons who performed the ICH. […] Proper postoperative care was taken until the animals recovered completely.
The corner task assessed the integrated sensorimotor function in both stimulation of vibrissae (sensory neglect) and rearing (motor response) (See Schallert et al., Neuropharmacology 39(5): p. 777-87 (2000)). Mice were placed between two cardboard pieces forming a corner with a 30° angle. While maintaining the 30° angle, the boards were gradually moved toward the mouse until the mouse approached the corner, reared upward, and turned 180° to face the open end. The direction (left or right) in which the mouse turned around was recorded for each trial. Ten trials were performed for each mouse. The adhesive tape removal task in mice was performed as previously described. Briefly, adhesive tape was placed on the planter region of the forward paw (right and left) of mice. The time from which the tape was applied to when the mouse successfully removed it was recorded for each paw. A maximum of 300 s for each paw was allowed.
For immunocytochemical experiments in the brain, three control mice with induced unilateral stroke and three selenium-treated mice with induced unilateral stroke were perfusion fixed with 4% PFA in PBS for 15 min. The brains were isolated and postfixed for 1 h in 4% PFA. After cryoprotection in a sucrose gradient, brain sections were cut at 30 μm.
Free-floating brain sections were blocked for 1 h in a PBS solution containing 3% bovine serum (Sigma), and 0.5% Triton X-100 (Biorad). Primary antibodies were diluted in the same solution and applied for 12 h, followed by incubation for 1 h with the appropriate secondary antibody, conjugated to Alexa 488 (1:1000; green fluorescence, Molecular Probes) or Alexa 568 (1:1000; red fluorescence, Molecular Probes). For nuclear labeling, ToPro was added to the mixture (1:15000, far red fluorescence, Invitrogen, T3605). […]

In the case of `O=[Se](O)O` [Se, Sodium selenite], the “protection from hemin-induced ferroptosis” value (primary cortical neurons [1]) is reported as “dose-dependently inhibited ferroptosis; also recorded: protected against ferroptosis”, the “protection from HCA-induced ferroptosis” value (primary cortical neurons [2]) is reported as “dose-dependently inhibited ferroptosis; also recorded: protected against ferroptosis” and the “erastin-induced ferroptotic cell death” value (HT1080 cancer cells) is reported as “abrogate erastin-mediated ferroptotic cell death; also recorded: blocked”. The “erastin-induced ferroptotic cell death” value (primary cortical neurons [3]) was “abrogate erastin-mediated ferroptotic cell death; also recorded: blocked”, the ER stress-induced death (primary neurons) was “protected; also recorded: significantly inhibited ER stress-induced death; also recorded: protective effect against ER stress-induced death” and the “glutamate excitotoxicity, cell death” value (mature cultured neurons) was “protected against excitotoxicity; also recorded: prevented cell death”. The “transcription of selenoprotein genes including GPX4” value [4] was “increased transcription; also recorded: induced”, the GPX4 promoter activity (GPX4 promoter) was “significant induction of GPX4 promoter activity” and the “GPX4 mRNA in whole striatum” value [5] was “significant increase in GPX4 mRNA”. For the same compound, the “mRNA levels of other selenoprotein genes in whole striatum” value [5] was “significant increase in mRNA levels of other selenoprotein genes”, the “Sp1 and GPX4 protein levels in neurons (immunofluorescence)” value ([6]; single 2.5 μM ICV Se, up to 7 days post ICH) was “increased GPX4 and Sp1 levels” and the “functional recovery, sensory neglect (tape removal task)” value ([6]; single ICV 2.5 μM Se 2 h after ICH, at 3 and 7 days) was “improved functional recovery; also recorded: improved outcomes in the sensory neglect task”. For the same compound, the “functional recovery, spatial neglect (corner task)” value ([6]; single ICV 2.5 μM Se 2 h after ICH, at 7 days) was “improved functional recovery; also recorded: improved outcomes in the spatial neglect task” and the “neuronal damage, fluorojade staining for degenerating neurons” value ([6]; single ICV dose 2.5 μM Se 2 h after ICH, 7 days post ICH) was “significant reduction in neuronal damage”.

From patent US11078236B2, “Selenium-based therapies” (Burke Neurological Institute, priority 2017, dated 2021)
